Some results were stated once for a whole list of compounds, not compound by compound.
What was measured:
Assay type in all cases: in vivo
[1] = system: Tetranychus urticae; experiment: Example B7 Activity against Tetranychus urticae (sprayed bean plants); conditions: 12.5 ppm spray liquor, mixed population, 25° C., 6 days
[2] = system: Spodoptera littoralis; experiment: Example B2 Activity against Spodoptera littoralis, systemic (maize seedlings); conditions: maize seedlings 6 days in test solution, L1 larvae on cut leaves, 4 days
[3] = system: Diabrotica balteata; experiment: Example B6 Activity against Diabrotica balteata (sprayed maize seedlings); conditions: 12.5 ppm spray liquor, second-stage larvae, 6 days
[4] = system: Spodoptera littoralis; experiment: Example B1 Activity against Spodoptera littoralis (sprayed soya bean plants); conditions: 12.5 ppm spray liquor, first-stage caterpillars, 3 days
[5] = system: Heliothis virescens; experiment: Example B3 Activity against Heliothis virescens (eggs on filter paper); conditions: 0.8 ml test solution on 0- to 24-hour-old eggs, evaluation after 6 days

Measured: reduction in the pest population

CCOC(=O)CC(CC)N[C@@H]1[C@H](C)O[C@@H](O[C@H]2[C@H](C)O[C@@H](O[C@@H]3/C(C)=C/C[C@@H]4C[C@@H](C[C@]5(C=C[C@H](C)[C@@H](C(C)CC)O5)O4)OC(=O)[C@@H]4C=C(C)[C@@H](O)[C@H]5OC/C(=C\C=C\C3C)[C@]54O)C[C@@H]2OC)C[C@@H]1OC (some centres unmarked) [1.108]
more than 80%: [1] | [2] | [3]

CCC(C)C1OC2(C=CC1C)CC1CC(CC=C(C)C(OC3CC(OC)C(OC4CC(OC)C(NCC=C(Cl)Cl)C(C)O4)C(C)O3)C(C)C=CC=C3COC4C(O)C(C)=CC(C(=O)O1)C34O)O2 (centres unmarked) [1.066]
not listed: [5]
more than 80%: all other assays above

CCC(C)C1OC2(C=CC1C)CC1CC(CC=C(C)C(OC3CC(OC)C(OC4CC(OC)C(N(C)CC(C)(C)O)C(C)O4)C(C)O3)C(C)C=CC=C3COC4C(O)C(C)=CC(C(=O)O1)C34O)O2 (centres unmarked) [2.025]
not listed: [5]
more than 80%: all other assays above

CCOC(=O)C(CCC(C)NC1C(C)OC(OC2C(C)OC(OC3C(C)=CCC4CC(CC5(C=CC(C)C(C(C)CC)O5)O4)OC(=O)C4C=C(C)C(O)C5OCC(=CC=CC3C)C45O)CC2OC)CC1OC)(NC=O)C(=O)OCC (centres unmarked) [1.150]
more than 80%: all assays above

C=CCOC(=O)CC(C)N[C@@H]1[C@H](C)O[C@@H](O[C@H]2[C@H](C)O[C@@H](O[C@@H]3/C(C)=C/C[C@@H]4C[C@@H](C[C@]5(C=C[C@H](C)[C@@H](C(C)CC)O5)O4)OC(=O)[C@@H]4C=C(C)[C@@H](O)[C@H]5OC/C(=C\C=C\C3C)[C@]54O)C[C@@H]2OC)C[C@@H]1OC (some centres unmarked) [1.105]
more than 80%: [1] | [2] | [3]

CCC(CC)NC1C(C)OC(OC2C(C)OC(OC3C(C)=CCC4CC(CC5(C=CC(C)C(C(C)CC)O5)O4)OC(=O)C4C=C(C)C(O)C5OCC(=CC=CC3C)C45O)CC2OC)CC1OC (centres unmarked) [1.076]
more than 80%: all assays above

CCC(C)[C@H]1O[C@]2(C=C[C@@H]1C)C[C@@H]1C[C@@H](C/C=C(\C)[C@@H](O[C@H]3C[C@H](OC)[C@@H](O[C@H]4C[C@H](OC)[C@H](N(C)Cc5cccc(C(=O)OC)c5)[C@H](C)O4)[C@H](C)O3)C(C)/C=C/C=C3\CO[C@@H]4[C@H](O)C(C)=C[C@@H](C(=O)O1)[C@]34O)O2 (some centres unmarked) [2.074]
more than 80%: all assays above

CCC(CC(=O)OC)NC1C(C)OC(OC2C(C)OC(OC3C(C)=CCC4CC(CC5(C=CC(C)C(C(C)CC)O5)O4)OC(=O)C4C=C(C)C(O)C5OCC(=CC=CC3C)C45O)CC2OC)CC1OC (centres unmarked) [1.081]
more than 80%: all assays above

CCC(C)[C@H]1O[C@]2(C=C[C@@H]1C)C[C@@H]1C[C@@H](C/C=C(\C)[C@@H](O[C@H]3C[C@H](OC)[C@@H](O[C@H]4C[C@H](OC)[C@H](NC5CCCCC5OC)[C@H](C)O4)[C@H](C)O3)C(C)/C=C/C=C3\CO[C@@H]4[C@H](O)C(C)=C[C@@H](C(=O)O1)[C@]34O)O2 (some centres unmarked) [1.107]
more than 80%: all assays above

CCOC(=O)CC(NC1C(C)OC(OC2C(C)OC(OC3C(C)=CCC4CC(CC5(C=CC(C)C(C(C)CC)O5)O4)OC(=O)C4C=C(C)C(O)C5OCC(=CC=CC3C)C45O)CC2OC)CC1OC)C(F)(F)F (centres unmarked) [1.078]
more than 80%: all assays above

CCC(C)[C@H]1O[C@]2(C=C[C@@H]1C)C[C@@H]1C[C@@H](C/C=C(\C)[C@@H](O[C@H]3C[C@H](OC)[C@@H](O[C@H]4C[C@H](OC)[C@H](N(C)CCO)[C@H](C)O4)[C@H](C)O3)C(C)/C=C/C=C3\CO[C@@H]4[C@H](O)C(C)=C[C@@H](C(=O)O1)[C@]34O)O2 (some centres unmarked) [2.004]
not listed: [5]
more than 80%: all other assays above

CCC(C)C1OC2(C=CC1C)CC1CC(CC=C(C)C(OC3CC(OC)C(OC4CC(OC)C(NC5CCSCC5)C(C)O4)C(C)O3)C(C)C=CC=C3COC4C(O)C(C)=CC(C(=O)O1)C34O)O2 (centres unmarked) [1.072]
more than 80%: all assays above

C#CCNC1C(C)OC(OC2C(C)OC(OC3C(C)=CCC4CC(CC5(C=CC(C)C(C(C)CC)O5)O4)OC(=O)C4C=C(C)C(O)C5OCC(=CC=CC3C)C45O)CC2OC)CC1OC (centres unmarked) [1.064]
not listed: [5]
more than 80%: all other assays above

CCOC(=O)C(C)NC1C(C)OC(OC2C(C)OC(OC3C(C)=CCC4CC(CC5(C=CC(C)C(C(C)CC)O5)O4)OC(=O)C4C=C(C)C(O)C5OCC(=CC=CC3C)C45O)CC2OC)CC1OC (centres unmarked) [1.073]
not listed: [3]
more than 80%: all other assays above

CCC(C)C1OC2(C=CC1C)CC1CC(CC=C(C)C(OC3CC(OC)C(OC4CC(OC)C(NCC(O)C(O)C(O)C(O)CO)C(C)O4)C(C)O3)C(C)C=CC=C3COC4C(O)C(C)=CC(C(=O)O1)C34O)O2 (centres unmarked) [1.063]
more than 80%: [1] | [3] | [4]

CCC(C)C1OC2(C=CC1C)CC1CC(CC=C(C)C(OC3CC(OC)C(OC4CC(OC)C(NCC(=O)OCc5ccccc5)C(C)O4)C(C)O3)C(C)C=CC=C3COC4C(O)C(C)=CC(C(=O)O1)C34O)O2 (centres unmarked) [1.044]
not listed: [3]
more than 80%: all other assays above

CCC(C)C1OC2(C=CC1C)CC1CC(CC=C(C)C(OC3CC(OC)C(OC4CC(OC)C(N(C)Cc5ccc(I)cc5)C(C)O4)C(C)O3)C(C)C=CC=C3COC4C(O)C(C)=CC(C(=O)O1)C34O)O2 (centres unmarked) [2.054]
not listed: [3]
more than 80%: all other assays above

CCC(C)C1OC2(C=CC1C)CC1CC(CC=C(C)C(OC3CC(OC)C(OC4CC(OC)C(NCC(=O)OCCOC)C(C)O4)C(C)O3)C(C)C=CC=C3COC4C(O)C(C)=CC(C(=O)O1)C34O)O2 (centres unmarked) [1.059]
not listed: [5]
more than 80%: all other assays above

CCC(C)C1OC2(C=CC1C)CC1CC(CC=C(C)C(OC3CC(OC)C(OC4CC(OC)C(NC(C)C(C)C)C(C)O4)C(C)O3)C(C)C=CC=C3COC4C(O)C(C)=CC(C(=O)O1)C34O)O2 (centres unmarked) [1.077]
not listed: [5]
more than 80%: all other assays above

CCC(C)[C@H]1O[C@]2(C=C[C@@H]1C)C[C@@H]1C[C@@H](C/C=C(\C)[C@@H](O[C@H]3C[C@H](OC)[C@@H](O[C@H]4C[C@H](OC)[C@H](NC5CCCC(C(F)(F)F)C5)[C@H](C)O4)[C@H](C)O3)C(C)/C=C/C=C3\CO[C@@H]4[C@H](O)C(C)=C[C@@H](C(=O)O1)[C@]34O)O2 (some centres unmarked) [1.103]
not listed: [3]
more than 80%: all other assays above

CCC(C)C1OC2(C=CC1C)CC1CC(CC=C(C)C(OC3CC(OC)C(OC4CC(OC)C(NCc5cnc(Cl)s5)C(C)O4)C(C)O3)C(C)C=CC=C3COC4C(O)C(C)=CC(C(=O)O1)C34O)O2 (centres unmarked) [1.067]
not listed: [5]
more than 80%: all other assays above

CCC(C)[C@H]1O[C@]2(C=C[C@@H]1C)C[C@@H]1C[C@@H](C/C=C(\C)[C@@H](O[C@H]3C[C@H](OC)[C@@H](O[C@H]4C[C@H](OC)[C@H](N5CC(O)C5)[C@H](C)O4)[C@H](C)O3)C(C)/C=C/C=C3\CO[C@@H]4[C@H](O)C(C)=C[C@@H](C(=O)O1)[C@]34O)O2 (some centres unmarked) [3.010]
not listed: [3]
more than 80%: all other assays above

— patent US7732416B2, “Avermectins substituted in the 4″-position having pesticidal properties” (Merial Limited, priority 2001, dated 2010)
